Laboratory results: PMC4963209 (2016)
These are yes or no findings as the source states them, for the method shown. Some entries that bind do so weakly or less than the wild type.

Biological target: T1, Juno (UniProt Q9EQF4 20-222)
T1 chain: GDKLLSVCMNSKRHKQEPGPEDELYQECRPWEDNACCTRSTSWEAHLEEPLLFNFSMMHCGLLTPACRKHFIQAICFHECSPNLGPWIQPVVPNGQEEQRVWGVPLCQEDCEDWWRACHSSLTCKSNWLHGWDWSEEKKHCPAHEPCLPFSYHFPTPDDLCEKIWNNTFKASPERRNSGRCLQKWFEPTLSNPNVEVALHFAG
Test: MST; microscale thermophoresis of Juno with the Izumo1 ectodomain or Izumo1 peptides; n ≥ 3; conditions are in the supplement, not shown; both purified

B1: Izumo1 ectodomain (domain or fragment)
chain: CIKCDQFVTDALKTFENTYLNDHLPHDIHKNVMRMVNHEVSSFGVVTSAEDSYLGAVDENTLEQATWSFLKDLKRITDSDLKGELFIKELLWMLRHQKDIFNNLARQFQKEVLCPNKCGVMSQTLIWCLKCEKQLHICRKSLDCGERHIEVHRSEDLVLDCLLSWHRASKGLTDYSFYRVWENSSETLIAKGKEPYLTKSMVGPEDAGNYRCVLDTINQGHATVIRYDVTVLPPKHSEENQPPNIITQEEHETPVHVTPQTPPGQEPESELYPELHPELYPELIPTVAQNPEKKMKTR
modifications: N-acetylglucosamine attached to N204 (seen in the crystal structure)
Q: B1 was tested. Which binding did it give?
A: binds
